# Data reported in the supplement of paper PMC11438910.
# This is one part of the list. Most of these values are background signal.
# Experiments:
# Experiment in all cases: fluorescence intensity of antibody binding to polysaccharide-coupled beads; higher = stronger binding
# [1] = biological target: pneumococcal polysaccharide Pn18B
# [2] = biological target: pneumococcal polysaccharide Pn18C
# [3] = biological target: pneumococcal polysaccharide Pn18F
# [4] = biological target: pneumococcal polysaccharide Pn19A
# [5] = biological target: pneumococcal polysaccharide Pn19B
# [6] = biological target: pneumococcal polysaccharide Pn19C
# [7] = biological target: pneumococcal polysaccharide Pn19F
# [8] = biological target: pneumococcal polysaccharide Pn2
# [9] = biological target: pneumococcal polysaccharide Pn20A
# [10] = biological target: pneumococcal polysaccharide Pn20B
# [11] = biological target: pneumococcal polysaccharide Pn21
# [12] = biological target: pneumococcal polysaccharide Pn22A
# [13] = antibody concentration 2.8593 ng/mL
# [14] = antibody concentration 15.2894 ng/mL
# [15] = antibody concentration 81.7561 ng/mL
# [16] = antibody concentration 437.17 ng/mL
# [17] = antibody concentration 2337.65 ng/mL
# [18] = antibody concentration 12500 ng/mL
# [19] = antibody concentration 0.1 ng/mL
# [20] = antibody concentration 0.534724 ng/mL
binder,measurement,setting,value
4-99.1 (protein) chain 1: QVQLQESGPGLVKPSETLSLTCAVSGDSISSGYFWGWIRQPPGKGLEYIGYISGESGNTYDNPSLKSRVTISKDTSKNQFSLNLRSVTAADTAVYYCARRTVYIGFDYWGQGVLVTVSS chain 2: QAAPTQPPSVSGSPGQSVTISCTGTSSDIGYYNAVSWYQQHPGKAPKLMIYEVSKRPSGVSDRFSGSKSGTTASLTISGLQAEDEADYYCSSYAGTNTYIFGAGTRLTVL,fluorescence intensity,[1]; [13],29.2 MFI
same,fluorescence intensity,[1]; [14],29.5 MFI
same,fluorescence intensity,[1]; [15],30.8 MFI
same,fluorescence intensity,[1]; [16],32 MFI
same,fluorescence intensity,[1]; [17],35 MFI
same,fluorescence intensity,[1]; [18],43 MFI
same,fluorescence intensity,[2]; [19],19 MFI
same,fluorescence intensity,[2]; [20],19.2 MFI
same,fluorescence intensity,[2]; [13],19 MFI
same,fluorescence intensity,[2]; [14],20 MFI
same,fluorescence intensity,[2]; [15],17.8 MFI
same,fluorescence intensity,[2]; [16],22.8 MFI
same,fluorescence intensity,[2]; [17],25.2 MFI
same,fluorescence intensity,[2]; [18],35 MFI
same,fluorescence intensity,[3]; [19],23.5 MFI
same,fluorescence intensity,[3]; [20],23.5 MFI
same,fluorescence intensity,[3]; [13],24.5 MFI
same,fluorescence intensity,[3]; [14],23 MFI
same,fluorescence intensity,[3]; [15],24.2 MFI
same,fluorescence intensity,[3]; [16],25.5 MFI
same,fluorescence intensity,[3]; [17],28 MFI
same,fluorescence intensity,[3]; [18],37 MFI
same,fluorescence intensity,[4]; [19],18.2 MFI
same,fluorescence intensity,[4]; [20],19 MFI
same,fluorescence intensity,[4]; [13],15.8 MFI
same,fluorescence intensity,[4]; [14],19 MFI
same,fluorescence intensity,[4]; [15],19.5 MFI
same,fluorescence intensity,[4]; [16],20 MFI
same,fluorescence intensity,[4]; [17],20 MFI
same,fluorescence intensity,[4]; [18],35.5 MFI
same,fluorescence intensity,[5]; [19],30 MFI
same,fluorescence intensity,[5]; [20],30.5 MFI
same,fluorescence intensity,[5]; [13],28 MFI
same,fluorescence intensity,[5]; [14],30.2 MFI
same,fluorescence intensity,[5]; [15],28.2 MFI
same,fluorescence intensity,[5]; [16],32.5 MFI
same,fluorescence intensity,[5]; [17],56 MFI
same,fluorescence intensity,[5]; [18],321 MFI
same,fluorescence intensity,[6]; [19],27 MFI
same,fluorescence intensity,[6]; [20],23.5 MFI
same,fluorescence intensity,[6]; [13],25.5 MFI
same,fluorescence intensity,[6]; [14],26.5 MFI
same,fluorescence intensity,[6]; [15],27 MFI
same,fluorescence intensity,[6]; [16],27 MFI
same,fluorescence intensity,[6]; [17],42 MFI
same,fluorescence intensity,[6]; [18],195 MFI
same,fluorescence intensity,[7]; [19],25.2 MFI
same,fluorescence intensity,[7]; [20],24.5 MFI
same,fluorescence intensity,[7]; [13],25 MFI
same,fluorescence intensity,[7]; [14],26.5 MFI
same,fluorescence intensity,[7]; [15],24.5 MFI
same,fluorescence intensity,[7]; [16],27 MFI
same,fluorescence intensity,[7]; [17],33.5 MFI
same,fluorescence intensity,[7]; [18],45 MFI
same,fluorescence intensity,[8]; [19],20 MFI
same,fluorescence intensity,[8]; [20],20.5 MFI
same,fluorescence intensity,[8]; [13],20.5 MFI
same,fluorescence intensity,[8]; [14],19.5 MFI
same,fluorescence intensity,[8]; [15],21 MFI
same,fluorescence intensity,[8]; [16],22 MFI
same,fluorescence intensity,[8]; [17],22.5 MFI
same,fluorescence intensity,[8]; [18],30 MFI
same,fluorescence intensity,[9]; [19],21.5 MFI
same,fluorescence intensity,[9]; [20],22 MFI
same,fluorescence intensity,[9]; [13],22 MFI
same,fluorescence intensity,[9]; [14],23.2 MFI
same,fluorescence intensity,[9]; [15],22.5 MFI
same,fluorescence intensity,[9]; [16],25 MFI
same,fluorescence intensity,[9]; [17],39 MFI
same,fluorescence intensity,[9]; [18],208 MFI
same,fluorescence intensity,[10]; [19],24.5 MFI
same,fluorescence intensity,[10]; [20],22.8 MFI
same,fluorescence intensity,[10]; [13],23.5 MFI
same,fluorescence intensity,[10]; [14],24 MFI
same,fluorescence intensity,[10]; [15],23.5 MFI
same,fluorescence intensity,[10]; [16],25 MFI
same,fluorescence intensity,[10]; [17],26.5 MFI
same,fluorescence intensity,[10]; [18],53 MFI
same,fluorescence intensity,[11]; [19],20 MFI
same,fluorescence intensity,[11]; [20],19.5 MFI
same,fluorescence intensity,[11]; [13],19.5 MFI
same,fluorescence intensity,[11]; [14],20 MFI
same,fluorescence intensity,[11]; [15],22 MFI
same,fluorescence intensity,[11]; [16],20.8 MFI
same,fluorescence intensity,[11]; [17],22.5 MFI
same,fluorescence intensity,[11]; [18],28.5 MFI
same,fluorescence intensity,[12]; [19],22 MFI
same,fluorescence intensity,[12]; [20],23.5 MFI
same,fluorescence intensity,[12]; [13],22.5 MFI
same,fluorescence intensity,[12]; [14],20 MFI

# A second format for part of the listing above.
binder	measurement	setting	value
4-99.1 (protein) chain 1: QVQLQESGPGLVKPSETLSLTCAVSGDSISSGYFWGWIRQPPGKGLEYIGYISGESGNTYDNPSLKSRVTISKDTSKNQFSLNLRSVTAADTAVYYCARRTVYIGFDYWGQGVLVTVSS chain 2: QAAPTQPPSVSGSPGQSVTISCTGTSSDIGYYNAVSWYQQHPGKAPKLMIYEVSKRPSGVSDRFSGSKSGTTASLTISGLQAEDEADYYCSSYAGTNTYIFGAGTRLTVL	fluorescence intensity	[3]; [16]	25.5 MFI
same	fluorescence intensity	[4]; [18]	35.5 MFI
same	fluorescence intensity	[5]; [20]	30.5 MFI
